These results are taken from PubChem BioAssay AID1347423 (Functional Genomics Laboratory (NCATS/FGL), 2020).

In all, about 52,000 sequences went through this assay and about 210 (0.4%) were called active.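 Rule for the calls: active = gene whose silencing raises cell survival under the drug, median off-target-corrected z-score across its silencing RNAs 2 or more; inactive = the rest.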 This is one part of the list.

The test in a line: Resistance to Poly (ADP-Ribose) Polymerase inhibitor: Gene Identification via Genome-wide siRNA Screen. The following applies: mouse BRCA2 R2336H ES cells, olaparib, CellTiter-Glo viability; stronger effect = higher value. In a few lines: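 Mouse BRCA2 R2336H ES cells were reverse-transfected with siRNA (20 nM final), treated at 48 h with 500 nM olaparib, and read by CellTiter-Glo after 72 h. Scores: MAD-based z per siRNA, median per gene, seed off-target correction.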
In the case of GGACAUAAAAUAUCUACGGTT against Trim17, the z-score was inactive: -0.2. Take “GGUGUUCAUUGAAGUCCAGTT against D11Ertd603e”: the z-score is inactive: -0.639. As to GAGUUACAUGCGAAUAUGATT against Ndufc1, the z-score is inactive: 2.19. With “GGAAGAUGUUUAUUCAAGUTT against D230019K24Rik”, the z-score was inactive: 1.6. Regarding GCCAGAGGAUAACCUAUCGTT against Dsg4, the z-score was inactive: -0.393. To CCGAUUUAACUGAAUUUGCTT against Acaa2 belongs inactive: -0.0932. Consider CCACUCAUCAGUGACAAAATT against Olfr820, for which the z-score was inactive: -1.06.

For the sequence CGUGGUCUCGGACACUUUCTT against Hcn2, the z-score is inactive: 0.262.

For the sequence GGCCCAGCAUGCAAGUUAUTT against Sh2d2a, the z-score was inactive: 0.295. On to GCAAGUGUACUAUUCCAUCTT against Myh6, for which the z-score was inactive: 0.769. As to GGCUAAGUAGACAGGUUUUTT against Olfr1288, the z-score was inactive: -0.132. Under GCUCAUUCCAGGUAUCUGATT against Fcna stands inactive: -0.049. For the sequence GGAUGUUGUCCAUACUGUATT against Zfp36l2, the z-score was inactive: 1.02. As to GGAUGUAAGGCCUUUUUUATT against Esr2, the z-score was inactive: -0.531. Turning to GCGGCAUUCGUCCAAAUUGTT against Tpt1h, the z-score is inactive: -0.38. On to GGAACAUAAGAUCUGCCUGTT against Crybb1, for which the z-score is inactive: -1.7. To GGAACAUGGCAACUCCGUGTT against Hcn1 belongs inactive: 0.411; to GGUAAAUAGCGAUAAGGUATT against Tgm1, inactive: 1.16. As for “GGAACUCACCCUCAGCUUGTT against 6720456H20Rik”, the z-score was inactive: 0.63. Take GGACUCUUUUUGUUCUUUGTT against Vgll2: the z-score was inactive: -0.293.

On to “GGCUGUUGUGCAGACUACATT against 2700094F01Rik”, for which the z-score is inactive: -2.9. Consider GGUUAGAAGAAGAAACCCGTT against Prph1, for which the z-score was inactive: -0.0726.

As to GGCUGUUCGAGCCCUGAAATT against Naca, the z-score is inactive: -2.29. Consider GCGCAAGUACCUCAAGAGUTT against Grem2, for which the z-score was inactive: 0.717. With “GGAUGCUUGUGCAAAGAUGTT against C030032C09Rik”, the z-score was inactive: -1.93. Under GGUCCAUGGAAUAGUACGGTT against Gmds stands inactive: 2.19; under GGGUUGUACUGAAAUAGUGTT against Il1rap, inactive: 1.92; under CCUACAGGCGGAGAAACAUTT against Serhl, inactive: -1.96. For “GGUUGACGAAUAAAUCAACTT against 4921525H12”, the z-score is inactive: 0.051.
